Literature values, collected in paper PMC13335744, “Functional Analysis of Ligand‐Gated Chloride Channels in a Cnidarian Sheds Light on the Evolution of Inhibitory Signaling” (Advanced Science, 2026).
pEC50: −log10 of the molar value.

System: ELIC
Settings: read-out: EC50, activation; low affinity; cited from earlier work

## NCCCC(=O)O [GABA, γ‐aminobutyric acid]
  pEC50: 1.68
